Assay results taken from US8299055B2, “8-substituted isoquinoline derivative and the use thereof” (Asahi Kasei Pharma Corporation, priority 2008, dated 2012).
Some entries share one result that the patent states for a list of compounds. For at least one compound, name, drawing or mass did not settle the structure.

Test system: TNF-α production in mouse blood
Assay: TNF-α production suppressing ability (in vitro)-2, LPS added to mouse blood
Format: cell-based
Details: at 10 μM or lower; BALB/c mouse blood, LPS 5 μg/mL, 4 hours

Row | SMILES | TNF-α production suppression rate [%]
1 | Cn1cncc1C(=O)N1CC(Oc2cc(-c3cccc(C#N)c3)cc3ccncc23)C1 [Example 2-o-70] | ≥ 50
2 | Cn1cnc(C(=O)N2CC(Oc3cc(-c4cccc(C#N)c4)cc4ccncc34)C2)c1 [Example 2-o-71] | ≥ 50
3 | Cn1nccc1C(=O)N1CC(Oc2cc(-c3cccc(C#N)c3)cc3ccncc23)C1 [Example 2-o-73] | ≥ 50
4 | N#Cc1cccc(-c2cc(OC3CN(C(=O)c4ccc(C(F)(F)F)nc4)C3)c3cnccc3c2)c1 [Example 2-o-78] | ≥ 50
5 | N#Cc1cccc(-c2cc(OC3CN(C(=O)CO)C3)c3cnccc3c2)c1 [Example 2-o-105] | ≥ 50
6 | CC(C)(CO)C(=O)N1CC(Oc2cc(-c3cccc(C#N)c3)cc3ccncc23)C1 [Example 2-o-111] | ≥ 50
7 | CNCC(=O)N1CC(Oc2cc(-c3cccc(C#N)c3)cc3ccncc23)C1 [Example 2-o-117] | ≥ 50
8 | Cn1nccc1C(=O)NCC(=O)N1CCC(Oc2cc(-c3cccc(C#N)c3)cc3ccncc23)CC1 [Example 2-o-167] | ≥ 50
9 | CN(C)CC(=O)NCC(=O)N1CC(Oc2cc(-c3cccc(C#N)c3)cc3ccncc23)C1 [Example 2-o-195] | ≥ 50
10 | N#Cc1cccc(-c2cc(NC3CCN(S(=O)(=O)c4ccc(F)c(C#N)c4)CC3)c3cnccc3c2)c1 [Example 3-N-12] | ≥ 50
11 | COc1cccc(S(=O)(=O)N2CCC(Nc3cc(-c4cccc(C#N)c4)cc4ccncc34)CC2)c1 [Example 3-N-18] | ≥ 50
12 | CS(=O)(=O)N1CC(C(=O)N2CCC(Nc3cc(-c4cccc(Cl)c4)cc4ccncc34)CC2)C1 [Example 3-N-111] | ≥ 50
13 | O=S(=O)(c1ccccn1)N1CCC(Nc2cc(-c3cccnc3)cc3ccncc23)CC1 [Example 3-N-112] | ≥ 50
14 | CS(=O)(=O)N1CC(Nc2cc(-c3cccc(C#N)c3)cc3ccncc23)C1 [Example 3-N-201] | ≥ 50
15 | N#Cc1cccc(-c2cc(NC3CN(S(=O)(=O)C4CC4)C3)c3cnccc3c2)c1 [Example 3-N-206] | ≥ 50
16 | CS(=O)(=O)N1CC(C(=O)N2CCC(Nc3cc(-c4ccc(F)c(C#N)c4)cc4ccncc34)CC2)C1 [Example 3-N-509] | ≥ 50
17 | CC1(C)CN(S(C)(=O)=O)[C@H](C(=O)N2CCC(Nc3cc(-c4cccc(C#N)c4)cc4ccncc34)CC2)CO1 [Example 3-N-513] | ≥ 50
18 | CCS(=O)(=O)N1CCC(Nc2cc(-c3ccc(C#N)c(C)c3)cc3ccncc23)CC1 [Example 3-NP-33] | ≥ 50
19 | Cc1cc(-c2cc(NC3CCN(S(=O)(=O)C4CC4)CC3)c3cnccc3c2)ccc1C#N [Example 3-NP-34] | ≥ 50
20 | CCS(=O)(=O)N1CCC(Nc2cc(-c3ccc(N)c(C#N)c3)cc3ccncc23)CC1 [Example 3-NP-42] | ≥ 50
21 | N#Cc1cc(-c2cc(NC3CCN(S(=O)(=O)C4CC4)CC3)c3cnccc3c2)ccc1N [Example 3-NP-43] | ≥ 50
22 | CCS(=O)(=O)N1CCC(Nc2cc(-c3cc(Cl)cc(C#N)c3)cc3ccncc23)CC1 [Example 3-NP-45] | ≥ 50
23 | CCS(=O)(=O)N1CCC(Nc2cc(-c3cc(F)c(C#N)c(F)c3)cc3ccncc23)CC1 [Example 3-NP-59] | ≥ 50
24 | CS(=O)(=O)N1CCC(C(=O)N2CCC(Oc3cc(-c4cccc(C#N)c4)cc4ccncc34)CC2)OC1 (stereo not shown) [Example 3-o-30] | ≥ 50
25 | CN(CC(=O)N1CC(Oc2cc(-c3cccc(C#N)c3)cc3ccncc23)C1)S(C)(=O)=O [Example 3-o-34] | ≥ 50
26 | O=S(=O)(C1CC1)N1CCC(Nc2cc(-c3ccc(F)cc3)cc3ccncc23)CC1 [Example 4-NP-65] | ≥ 50
27 | CCS(=O)(=O)N1CCC(Nc2cc(-c3cnn(C)c3)cc3ccncc23)CC1 [Example 4-NP-123] | ≥ 50
28 | CCS(=O)(=O)N1CCC(Nc2cc(-c3ccc4c(c3)CC(=O)N4)cc3ccncc23)CC1 [Example 4-NP-138] | ≥ 50
29 | CCS(=O)(=O)N1CCC(Nc2cc(-c3ccnc(C#N)c3)cc3ccncc23)CC1 [Example 4-NP-182] | ≥ 50

Test system: TNF-α production in THP-1 cells
Assay: TNF-α production suppressing ability (in vitro)-1, LPS-stimulated THP-1 cells
Format: cell-based, human
Details: at 5 μM or lower, LPS 2 μg/mL, 4 hours

Row | SMILES | TNF-α production suppression rate [%]
30 | Clc1cccc(-c2cc(NC3CCNCC3)c3cnccc3c2)c1 [Example 1-NP-33] | ≥ 50
31 | N#Cc1cccc(-c2cc(O[C@@H]3CCNC3)c3cnccc3c2)c1 [Example 1-o-4] | ≥ 50
32 | N#Cc1cccc(-c2cc(O[C@H]3CCNC3)c3cnccc3c2)c1 [Example 1-o-5] | ≥ 50
33 | N#Cc1cccc(-c2cc(OCCCN)c3cnccc3c2)c1 [Example 1-o-10] | ≥ 50
34 | CN1CCC(Oc2cc(-c3cccc(C#N)c3)cc3ccncc23)C1 (stereo not shown) [Example 1-o-26] | ≥ 50
35 | N#Cc1cccc(-c2cc(OCCO)c3cnccc3c2)c1 [Example 1-o-33] | ≥ 50
36 | Cn1cncc1C(=O)N1CC(Oc2cc(-c3cccc(F)c3)cc3ccncc23)C1 [Example 1-oP-21] | ≥ 50
37 | Cn1cncc1C(=O)N1CC(Oc2cc(-c3cccc(Cl)c3)cc3ccncc23)C1 [Example 1-oP-22] | ≥ 50
38 | Cn1cncc1C(=O)N1CC(Oc2cc(-c3ccsc3)cc3ccncc23)C1 [Example 1-oP-32] | ≥ 50
39 | N#Cc1cc(-c2cc(NC3CCN(C(=O)c4ccc(Br)cc4F)CC3)c3cnccc3c2)ccc1F [Example 2-N-215] | ≥ 50
40 | Cc1ccc(C(=O)N2CCC(Nc3cc(-c4ccc(F)c(C#N)c4)cc4ccncc34)CC2)cc1Cl [Example 2-N-216] | ≥ 50
41 | Cc1cc(C(=O)N2CCC(Nc3cc(-c4ccc(F)c(C#N)c4)cc4ccncc34)CC2)ccc1F [Example 2-N-219] | ≥ 50
42 | N#Cc1cc(-c2cc(NC3CCN(C(=O)c4cc(F)cc(Br)c4)CC3)c3cnccc3c2)ccc1F [Example 2-N-233] | ≥ 50
43 | N#Cc1cc(-c2cc(NC3CCN(C(=O)c4cccc5ccccc45)CC3)c3cnccc3c2)ccc1F [Example 2-N-234] | ≥ 50
44 | COc1ccc(F)c(C(=O)N2CCC(Nc3cc(-c4ccc(F)c(C#N)c4)cc4ccncc34)CC2)c1 [Example 2-N-245] | ≥ 50
45 | COc1ccc(C(=O)N2CCC(Nc3cc(-c4ccc(F)c(C#N)c4)cc4ccncc34)CC2)c([N+](=O)[O-])c1 [Example 2-N-255] | ≥ 50
46 | N#Cc1cc(-c2cc(NC3CCN(C(=O)c4c(F)c(F)c(O)c(F)c4F)CC3)c3cnccc3c2)ccc1F [Example 2-N-256] | ≥ 50
47 | CC(=O)Nc1cc(C(=O)N2CCC(Nc3cc(-c4ccc(F)c(C#N)c4)cc4ccncc34)CC2)ccc1C [Example 2-N-263] | ≥ 50
48 | CC(=O)N1CCC(Nc2cc(-c3cccnc3)cc3ccncc23)CC1 [Example 2-N-284] | ≥ 50

Row | SMILES | TNF-α production suppression rate [%]
49 | O=C(c1cccnc1)N1CCC(Nc2cc(-c3cccnc3)cc3ccncc23)CC1 [Example 2-N-290] | ≥ 50
50 | O=C(C1CC1)N1CCC(Nc2cc(-c3cccnc3)cc3ccncc23)CC1 [Example 2-N-291] | ≥ 50
51 | COc1ccc(-c2cc(NC3CCN(C(=O)C4CC4)CC3)c3cnccc3c2)cn1 [Example 2-NP-6] | ≥ 50
52 | CC(=O)c1ccc(-c2cc(NC3CCN(C(=O)C4CC4)CC3)c3cnccc3c2)cc1 [Example 2-NP-14] | ≥ 50
53 | Cc1cscc1-c1cc(NC2CCN(S(C)(=O)=O)CC2)c2cnccc2c1 [Example 2-NP-50] | ≥ 50
54 | N#Cc1cccc(-c2cc(OC3CCN(C(=O)C4CCCO4)CC3)c3cnccc3c2)c1 (stereo not shown) [Example 2-o-6] | ≥ 50
55 | N#Cc1cccc(-c2cc(OC3CCN(C(=O)C4CNCCO4)CC3)c3cnccc3c2)c1 (stereo not shown) [Example 2-o-19] | ≥ 50
56 | N#Cc1cccc(-c2cc(OC3CCN(C(=O)[C@H]4COCCN4)CC3)c3cnccc3c2)c1 [Example 2-o-20] | ≥ 50
57 | N#Cc1cccc(-c2cc(OC3CCN(C(=O)c4ccc(N)nc4)CC3)c3cnccc3c2)c1 [Example 2-o-28] | ≥ 50
58 | N#Cc1cccc(-c2cc(OC3CCN(C(=O)c4ccncc4)CC3)c3cnccc3c2)c1 [Example 2-o-31] | ≥ 50
59 | Cc1cc(C(=O)N2CCC(Oc3cc(-c4cccc(C#N)c4)cc4ccncc34)CC2)cc(Cl)n1 [Example 2-o-35] | ≥ 50
60 | CC(C)(O)C(=O)N1CCC(Oc2cc(-c3cccc(C#N)c3)cc3ccncc23)CC1 [Example 2-o-53] | ≥ 50
61 | CC(C)(CO)C(=O)N1CCC(Oc2cc(-c3cccc(C#N)c3)cc3ccncc23)CC1 [Example 2-o-56] | ≥ 50
62 | CC(C)(O)CC(=O)N1CCC(Oc2cc(-c3cccc(C#N)c3)cc3ccncc23)CC1 [Example 2-o-57] | ≥ 50
63 | N#Cc1cccc(-c2cc(OC3CN(C(=O)c4cccc(F)c4)C3)c3cnccc3c2)c1 [Example 2-o-92] | ≥ 50
64 | COc1cccc(C(=O)N2CC(Oc3cc(-c4cccc(C#N)c4)cc4ccncc34)C2)c1 [Example 2-o-93] | ≥ 50
65 | CN1CCC(C(=O)N2CC(Oc3cc(-c4cccc(C#N)c4)cc4ccncc34)C2)CC1 [Example 2-o-120] | ≥ 50
66 | Cn1cncc1C(=O)N1CCC(Oc2cc(-c3cccc(C#N)c3)cc3ccncc23)C1 (stereo not shown) [Example 2-o-124] | ≥ 50
67 | N#Cc1cccc(-c2cc(OC3CCN(C(=O)c4ccnnc4)C3)c3cnccc3c2)c1 (stereo not shown) [Example 2-o-125] | ≥ 50
